Assay results as given in publication PMC6024880.
No constants are given. Whether binding was seen depends on the method and setting.

The chains behind the UniProt entries cited, without tags or fusion partners. Residues count along the entry.
UniProt P02769, residues 25-607: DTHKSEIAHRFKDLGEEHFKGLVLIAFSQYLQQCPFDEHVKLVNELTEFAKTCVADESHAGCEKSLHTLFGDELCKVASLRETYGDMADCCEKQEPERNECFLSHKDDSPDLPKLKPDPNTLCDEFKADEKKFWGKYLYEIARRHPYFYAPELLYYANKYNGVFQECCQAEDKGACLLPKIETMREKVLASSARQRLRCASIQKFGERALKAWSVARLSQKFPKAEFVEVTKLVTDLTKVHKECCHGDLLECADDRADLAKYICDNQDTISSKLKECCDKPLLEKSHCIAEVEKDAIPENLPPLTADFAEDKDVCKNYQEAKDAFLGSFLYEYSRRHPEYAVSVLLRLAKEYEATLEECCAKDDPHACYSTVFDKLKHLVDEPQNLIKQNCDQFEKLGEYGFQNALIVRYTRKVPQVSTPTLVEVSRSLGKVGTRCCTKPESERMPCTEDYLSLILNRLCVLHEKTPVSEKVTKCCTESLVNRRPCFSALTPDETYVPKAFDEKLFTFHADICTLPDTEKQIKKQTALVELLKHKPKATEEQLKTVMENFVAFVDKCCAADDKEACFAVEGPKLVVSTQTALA
UniProt P01023, residues 24-1474: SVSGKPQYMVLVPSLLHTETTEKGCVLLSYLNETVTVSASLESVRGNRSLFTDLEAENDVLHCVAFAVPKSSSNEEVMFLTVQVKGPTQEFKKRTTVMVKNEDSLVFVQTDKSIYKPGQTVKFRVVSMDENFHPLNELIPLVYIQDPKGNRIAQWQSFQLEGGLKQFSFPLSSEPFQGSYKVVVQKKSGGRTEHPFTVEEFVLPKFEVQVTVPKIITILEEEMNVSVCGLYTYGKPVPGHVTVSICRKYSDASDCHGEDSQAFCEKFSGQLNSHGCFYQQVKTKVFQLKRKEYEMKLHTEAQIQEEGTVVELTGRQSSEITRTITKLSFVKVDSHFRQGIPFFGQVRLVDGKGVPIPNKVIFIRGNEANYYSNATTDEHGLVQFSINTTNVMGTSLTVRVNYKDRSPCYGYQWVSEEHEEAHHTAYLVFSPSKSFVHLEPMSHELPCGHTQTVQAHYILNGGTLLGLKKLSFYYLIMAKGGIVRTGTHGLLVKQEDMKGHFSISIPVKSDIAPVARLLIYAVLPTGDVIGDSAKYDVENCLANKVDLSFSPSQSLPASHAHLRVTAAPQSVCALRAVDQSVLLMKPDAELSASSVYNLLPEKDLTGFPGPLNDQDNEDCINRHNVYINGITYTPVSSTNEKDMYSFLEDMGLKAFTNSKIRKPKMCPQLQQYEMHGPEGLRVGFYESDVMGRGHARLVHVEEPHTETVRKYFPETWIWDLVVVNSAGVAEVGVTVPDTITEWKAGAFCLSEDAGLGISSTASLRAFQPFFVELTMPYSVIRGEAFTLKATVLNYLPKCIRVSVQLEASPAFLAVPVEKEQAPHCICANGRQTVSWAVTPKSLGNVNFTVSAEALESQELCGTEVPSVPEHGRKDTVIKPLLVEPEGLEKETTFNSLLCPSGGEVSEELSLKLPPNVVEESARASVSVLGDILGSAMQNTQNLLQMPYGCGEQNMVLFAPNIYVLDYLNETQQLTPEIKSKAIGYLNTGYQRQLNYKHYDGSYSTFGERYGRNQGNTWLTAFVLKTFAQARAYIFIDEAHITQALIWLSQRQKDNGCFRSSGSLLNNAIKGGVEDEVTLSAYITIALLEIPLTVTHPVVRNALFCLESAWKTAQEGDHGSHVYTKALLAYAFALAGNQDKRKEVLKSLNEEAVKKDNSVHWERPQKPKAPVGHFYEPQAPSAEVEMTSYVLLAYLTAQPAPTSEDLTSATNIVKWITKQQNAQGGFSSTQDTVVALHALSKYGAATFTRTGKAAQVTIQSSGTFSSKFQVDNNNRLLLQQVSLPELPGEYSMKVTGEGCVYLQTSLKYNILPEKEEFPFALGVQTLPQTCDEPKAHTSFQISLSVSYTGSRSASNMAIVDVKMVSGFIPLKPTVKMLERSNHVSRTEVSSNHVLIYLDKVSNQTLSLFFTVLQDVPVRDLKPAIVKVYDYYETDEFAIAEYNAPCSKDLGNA

Biological target: BSA (blocker of the ELISA plate) (bovine (by the name BSA)) (UniProt P02769)
Assay: ELISA; αS aggregated 9 hr (2.5 μM; controls: monomeric αS, BSA blocker alone) adsorbed to a microplate, blocked with 150 μM BSA, some wells with 0-100 μM bisANS; CLU or α2M at 10 μg/mL in BSA blocking solution, 1 hr at RT; bound chaperone detected with kit antibodies and HRP; both purified

**Q.** How did the binding turn out when “α2-macroglobulin (α2M), unlabelled (from UniProt P01023 24-1474)” was run?
**A.** no binding (tested: 10 μg ⋅ mL^−1)
